These are yes or no findings as the source states them, for the method shown. Binding seen in cells or lysates may run through a third protein. A yes stands for co-enrichment or nearness to the bait. Other partners may have been found.
Target: T1, POU2AF1 (human (endogenous in MM1.S)) (UniProt Q16633)
T1 sequence: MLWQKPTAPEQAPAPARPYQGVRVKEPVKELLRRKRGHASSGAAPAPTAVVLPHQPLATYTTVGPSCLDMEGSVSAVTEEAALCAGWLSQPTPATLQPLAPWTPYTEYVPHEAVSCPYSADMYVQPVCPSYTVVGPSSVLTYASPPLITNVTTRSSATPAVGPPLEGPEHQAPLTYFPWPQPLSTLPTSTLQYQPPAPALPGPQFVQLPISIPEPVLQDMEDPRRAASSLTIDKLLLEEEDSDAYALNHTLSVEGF
Experiment: affinity purification with mass spectrometry; POU2AF1 RIME in MM1.S cells: 1% formaldehyde cross-linking for 8 min, sonicated nuclear lysate, immunoprecipitation overnight at 4°C, TMT labelling, LC-MS/MS

- binding: binds
B1: IRF4 (protein, UniProt Q15306 1-451)
chain: MNLEGGGRGGEFGMSAVSCGNGKLRQWLIDQIDSGKYPGLVWENEEKSIFRIPWKHAGKQDYNREEDAALFKAWALFKGKFREGIDKPDPPTWKTRLRCALNKSNDFEELVERSQLDISDPYKVYRIVPEGAKKGAKQLTLEDPQMSMSHPYTMTTPYPSLPAQQVHNYMMPPLDRSWRDYVPDQPHPEIPYQCPMTFGPRGHHWQGPACENGCQVTGTFYACAPPESQAPGVPTEPSIRSAEALAFSDCRLHICLYYREILVKELTTSSPEGCRISHGHTYDASNLDQVLFPYPEDNGQRKNIEKLLSHLERGVVLWMAPDGLYAKRLCQSRIYWDGPLALCNDRPNKLERDQTCKLFDTQQFLSELQAFAHHGRSLPRFQVTLCFGEEFPDPQRQRKLITAHVEPLLARQLYYFAQQNSGHFLRGYDLPEHISNPEDYHRSIRHSSIQE
